These results are taken from PMC7862700.

Holding throughout (test): DAPPL (digital affinity profiling via proximity ligation, sequencing)
Holding throughout (details): 10 mM Tris-HCl pH 7.5, 50 mM NaCl, 1 mM DTT, 4% glycerol, room temperature, 30 min; GST-TFs on glutathione beads, 16-mer random dsDNA library, 0.1% …; high values mean tight binding; double strand, one strand shown; scale: fold enrichment (6-mer frequency, TF over GST control)

For experiment [1], the target named is T1, ELK1 (UniProt P19419).
T1 sequence: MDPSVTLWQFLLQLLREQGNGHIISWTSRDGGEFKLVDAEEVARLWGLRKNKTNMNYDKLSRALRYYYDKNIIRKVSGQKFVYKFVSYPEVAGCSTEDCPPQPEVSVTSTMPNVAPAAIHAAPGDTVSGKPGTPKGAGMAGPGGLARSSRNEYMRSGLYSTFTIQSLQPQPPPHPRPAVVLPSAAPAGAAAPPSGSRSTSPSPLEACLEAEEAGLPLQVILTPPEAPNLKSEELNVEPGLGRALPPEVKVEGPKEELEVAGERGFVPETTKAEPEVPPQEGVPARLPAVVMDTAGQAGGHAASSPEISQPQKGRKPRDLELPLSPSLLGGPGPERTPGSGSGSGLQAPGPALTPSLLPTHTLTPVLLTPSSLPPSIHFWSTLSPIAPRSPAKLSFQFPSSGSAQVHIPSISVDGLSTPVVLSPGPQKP

Experiment [2] addresses T2, SPIC (UniProt Q8N5J4).
T2 sequence: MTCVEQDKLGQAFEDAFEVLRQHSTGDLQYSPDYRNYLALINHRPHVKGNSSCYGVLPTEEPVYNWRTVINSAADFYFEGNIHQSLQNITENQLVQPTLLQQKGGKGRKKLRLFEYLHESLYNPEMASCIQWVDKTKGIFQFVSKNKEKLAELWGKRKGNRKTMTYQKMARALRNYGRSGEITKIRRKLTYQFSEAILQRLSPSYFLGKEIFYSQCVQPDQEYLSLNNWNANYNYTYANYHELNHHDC

The target of experiment [3] is T3, ETS2 (UniProt P15036).
T3 sequence: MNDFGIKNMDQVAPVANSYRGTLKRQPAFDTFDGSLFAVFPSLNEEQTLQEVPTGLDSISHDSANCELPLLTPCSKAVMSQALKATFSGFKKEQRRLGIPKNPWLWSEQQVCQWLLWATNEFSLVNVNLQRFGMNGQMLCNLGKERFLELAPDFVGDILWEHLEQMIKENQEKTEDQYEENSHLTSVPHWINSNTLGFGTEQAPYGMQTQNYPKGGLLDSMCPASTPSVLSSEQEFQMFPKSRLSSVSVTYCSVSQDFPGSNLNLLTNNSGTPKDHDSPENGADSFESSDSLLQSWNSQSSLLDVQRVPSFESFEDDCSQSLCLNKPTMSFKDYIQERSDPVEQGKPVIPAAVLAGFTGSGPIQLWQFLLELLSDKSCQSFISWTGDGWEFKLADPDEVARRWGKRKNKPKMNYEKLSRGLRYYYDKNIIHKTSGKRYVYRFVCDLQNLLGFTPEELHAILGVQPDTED

For experiment [4], the target named is T4, ETV3 (UniProt P41162-2).
T4 sequence: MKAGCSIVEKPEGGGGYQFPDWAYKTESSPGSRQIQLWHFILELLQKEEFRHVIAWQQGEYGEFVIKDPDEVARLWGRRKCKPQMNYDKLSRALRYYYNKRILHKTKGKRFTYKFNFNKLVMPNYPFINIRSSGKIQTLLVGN

Experiment [5] addresses T5, ELK3 (UniProt P41970).
T5 sequence: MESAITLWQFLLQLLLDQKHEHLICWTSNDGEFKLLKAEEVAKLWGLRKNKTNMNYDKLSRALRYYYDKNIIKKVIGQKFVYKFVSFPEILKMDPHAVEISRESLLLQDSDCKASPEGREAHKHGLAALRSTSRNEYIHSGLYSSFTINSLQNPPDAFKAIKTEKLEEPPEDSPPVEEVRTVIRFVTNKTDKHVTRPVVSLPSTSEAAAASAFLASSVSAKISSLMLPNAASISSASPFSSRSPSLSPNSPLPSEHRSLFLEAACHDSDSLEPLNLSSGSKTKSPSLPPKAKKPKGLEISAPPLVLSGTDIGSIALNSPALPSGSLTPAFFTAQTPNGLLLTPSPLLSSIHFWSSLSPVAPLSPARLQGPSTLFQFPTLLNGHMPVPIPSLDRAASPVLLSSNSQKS

The list shows a part of the results, in another mix than the full data. At the low end of the ranking the order means little.

Turning to TCTGAG, the binding signal stood at 0.953 in experiment [1], 0.936 in experiment [2], 1 in experiment [3] and 0.973 in experiment [4].

As for AGAGAT, the binding signal in experiment [1] worked out at 0.905; in experiment [5], 0.924; in experiment [2] it was 0.875; in experiment [3] it was 0.845; in experiment [4] it was 0.883.

In the case of GTGGCA, the binding signal in experiment [1] turned out to be 0.959; in experiment [2], 1.04; in experiment [3], 0.958; in experiment [4], 1.

On to GAAGAT, for which the binding signal in experiment [1] is 0.961; in experiment [5], 0.855; in experiment [2], 0.888; in experiment [3], 0.977; in experiment [4] it was 0.921.

In the case of GATCCA, the binding signal was found to be 1.08 in experiment [1], 0.952 in experiment [2], 1.09 in experiment [3] and 1.05 in experiment [4].

CGGTTA: the binding signal worked out at 0.988 in experiment [1]; 1 in experiment [5]; 0.947 in experiment [2]; 0.963 in experiment [3]; 0.964 in experiment [4].

As to AGGAAT, the binding signal in experiment [1] came out at 0.75; in experiment [5], 0.778; in experiment [2], 0.858; in experiment [3] it was 0.808; in experiment [4] it was 0.828.

For the sequence GTGTTG, the binding signal is 0.95 in experiment [1]; 0.815 in experiment [5]; 0.952 in experiment [2]; 0.811 in experiment [3]; 0.994 in experiment [4].

For GCGATT, the binding signal in experiment [1] was 0.901; in experiment [5], 0.898; in experiment [2], 0.941; in experiment [3], 0.959; in experiment [4], 0.972.

For GGAATA, the binding signal in experiment [1] turned out to be 0.854; in experiment [5], 0.921; in experiment [2], 0.831; in experiment [3], 0.903; in experiment [4], 0.888.

In the case of GGCAGC, the binding signal is 1.02 in experiment [1]; 0.893 in experiment [5]; 0.822 in experiment [2]; 0.858 in experiment [3]; 0.971 in experiment [4].

For ACGCGA, the binding signal in experiment [1] was 0.849; in experiment [5], 0.935; in experiment [2], 0.873; in experiment [3], 0.818; in experiment [4], 0.877.

In the case of TCGTTG, the binding signal in experiment [1] was 0.867; in experiment [5], 0.862; in experiment [2], 0.797; in experiment [3], 0.934; in experiment [4], 0.921.

Turning to GCCATT, the binding signal is 0.983 in experiment [1]; 0.866 in experiment [5]; 0.998 in experiment [2]; 0.952 in experiment [3]; 0.979 in experiment [4].

Take TCCAGT: the binding signal is 0.616 in experiment [1]; 0.726 in experiment [5]; 0.693 in experiment [2]; 0.64 in experiment [3]; 0.682 in experiment [4].

In the case of TTCGGG, the binding signal in experiment [1] is 0.745; in experiment [5], 0.882; in experiment [2], 0.94; in experiment [3] it was 0.921; in experiment [4] it was 1.03.

With CAGATC, the binding signal turned out to be 0.947 in experiment [1]; 0.893 in experiment [5]; 0.869 in experiment [2]; 0.903 in experiment [3]; 0.927 in experiment [4].

On to GGATGG, for which the binding signal in experiment [1] stood at 0.996; in experiment [5] it was 0.987; in experiment [2], 0.861; in experiment [3], 1.03; in experiment [4] it was 0.978.

Regarding CCAAGT, the binding signal turned out to be 0.882 in experiment [1]; 0.89 in experiment [5]; 0.974 in experiment [2]; 0.88 in experiment [3]; 0.969 in experiment [4].

Turning to GATCGA, the binding signal amounted to 0.841 in experiment [1]; 0.768 in experiment [5]; 0.853 in experiment [2]; 0.783 in experiment [3]; 0.842 in experiment [4].

AGTCTT: the binding signal in experiment [1] was 0.903; in experiment [5], 0.889; in experiment [2] it was 0.839; in experiment [3], 0.922; in experiment [4] it was 0.896.

Regarding TCGCGA, the binding signal in experiment [1] amounted to 0.899; in experiment [5], 0.769; in experiment [2], 0.986; in experiment [3], 0.834; in experiment [4] it was 0.801.

Turning to TAGTCA, the binding signal in experiment [1] was 0.924; in experiment [5], 0.836; in experiment [2], 0.95; in experiment [3], 0.87; in experiment [4], 0.858.

In the case of AGATCA, the binding signal in experiment [1] is 0.889; in experiment [5] it was 0.941; in experiment [2], 0.771; in experiment [3], 0.828; in experiment [4], 0.848.

Regarding GTCATT, the binding signal is 0.951 in experiment [1]; 0.851 in experiment [5]; 0.927 in experiment [2]; 0.94 in experiment [3]; 0.916 in experiment [4].

For the sequence ATCAGA, the binding signal turned out to be 0.907 in experiment [1]; 0.938 in experiment [5]; 0.891 in experiment [2]; 0.907 in experiment [3]; 0.987 in experiment [4].

GCTAGG: the binding signal turned out to be 0.915 in experiment [1]; 0.977 in experiment [5]; 1.03 in experiment [2]; 0.954 in experiment [3]; 1.03 in experiment [4].

Take GAGCTC: the binding signal in experiment [1] came to 0.923; in experiment [5], 0.85; in experiment [2] it was 0.963; in experiment [3] it was 0.898; in experiment [4] it was 0.838.
